Literature values, collected in US20220000854A1 (CHASE THERAPEUTICS CORPORATION, priority 2018, published 2022).

System: brain cell systems
Settings: cited from earlier work

In the case of CC(C)c1c(C(=O)Nc2ccccc2)c(-c2ccccc2)c(-c2ccc(F)cc2)n1CC[C@@H](O)C[C@@H](O)CC(=O)O [atorvastatin, (3R,5R)-7-[2-(4-fluorophenyl)-3-phenyl-4-(phenylcarbamoyl)-5-propan-2-ylpyrrol-1-yl]-3,5-dihydroxyheptanoic acid], the “protection against 6-hydroxydopamine (6-OHDA)” value is given as “protect against the deleterious consequences of the dopaminergic neurotoxin 6-hydroxydopamine”.
